{"source": "paper PMC11408855", "about": "“The structure of the SufS–SufE complex reveals interactions driving protected persulfide transfer in iron-sulfur cluster biogenesis” (The Journal of Biological Chemistry, 2024)", "key": {"[1]": {"molecular_target": "T1, BODIPY-FL-labeled C51A/E107C EcSufE (Escherichia coli) (UniProt P76194)", "T1 sequence (chain, BODIPY-FL maleimide label (labeling efficiency 60 to 80%))": "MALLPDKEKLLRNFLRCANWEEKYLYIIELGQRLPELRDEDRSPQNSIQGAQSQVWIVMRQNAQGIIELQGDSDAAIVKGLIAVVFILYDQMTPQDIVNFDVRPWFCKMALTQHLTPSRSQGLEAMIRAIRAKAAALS", "test": "fluorescence polarisation; 100 nM BODIPY-FL-labeled EcSufE titrated with EcSufS; 50 mM Mops pH 8.0, 150 mM NaCl, 0.1 mg/ml bovine serum albumin, 25 °C, 30 min; absence of cysteine; apparent KD; both purified"}, "[2]": {"molecular_target": "T2, WT EcSufE (Escherichia coli), P76194", "T2 chain": "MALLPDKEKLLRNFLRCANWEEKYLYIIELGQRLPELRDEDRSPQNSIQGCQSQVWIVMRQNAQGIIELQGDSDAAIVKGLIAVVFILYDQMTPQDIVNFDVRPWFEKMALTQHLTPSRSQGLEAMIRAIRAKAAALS", "test": "SEC; S75 10/300 column, 100 μl of 4 mg/ml protein, 50 mM Mops pH 8.0, 150 mM NaCl, 1 ml/min; both purified", "conditions": "remark: other sources report otherwise"}, "[3]": {"molecular_target": "R119A EcSufE (WT background) (Escherichia coli) (UniProt P76194)", "test": "SEC; S75 10/300 column, 100 μl of 4 mg/ml protein, 50 mM Mops pH 8.0, 150 mM NaCl, 1 ml/min; both purified"}, "[4]": {"molecular_target": "R119K EcSufE (WT background) (Escherichia coli) (UniProt P76194)", "test": "SEC; S75 10/300 column, 100 μl of 4 mg/ml protein, 50 mM Mops pH 8.0, 150 mM NaCl, 1 ml/min; both purified"}}, "note": "No constants are given. Whether binding was seen depends on the method and setting. For some assays here: Sequences can lack the tags named with a protein."}
{"binder": "D346A EcSufS, C-terminal his-tagged (enzyme, UniProt P77444 1-406, PLP (pyridoxal 5'-phosphate) cofactor) MIFSVDKVRADFPVLSREVNGLPLAYLDSAASAQKPSQVIDAEAEFYRHGYAAVHRGIHTLSAQATEKMENVRKRASLFINARSAEELVFVRGTTEGINLVANSWGNSNVRAGDNIIISQMEHHANIVPWQMLCARVGAELRVIPLNPDGTLQLETLPTLFDEKTRLLAITHVSNVLGTENPLAEMITLAHQHGAKVLVDGAQAVMHHPVDVQALDCDFYVFSGHKLYGPTGIGILYVKEALLQEMPPWEGGGSMIATVSLSEGTTWTKAPWRFEAGTPNTGGIIGLGAALEYVSALGLNNIAEYEQNLMHYALSQLESVPDLTLYGPQNRLGVIAFNLGKHHAYAVGSFLDNYGIAVRTGHHCAMPLMAYYNVPAMCRASLAMYNTHEEVDRLVTGLQRIHRLLG", "values": [{"measurement": "binding", "setting": "[1]", "result": "no binding (tested: up to 20 μM; KD >>40 μM)"}]}
{"binder": "F350A EcSufS, C-terminal his-tagged (enzyme, UniProt P77444 1-406, PLP (pyridoxal 5'-phosphate) cofactor) MIFSVDKVRADFPVLSREVNGLPLAYLDSAASAQKPSQVIDAEAEFYRHGYAAVHRGIHTLSAQATEKMENVRKRASLFINARSAEELVFVRGTTEGINLVANSWGNSNVRAGDNIIISQMEHHANIVPWQMLCARVGAELRVIPLNPDGTLQLETLPTLFDEKTRLLAITHVSNVLGTENPLAEMITLAHQHGAKVLVDGAQAVMHHPVDVQALDCDFYVFSGHKLYGPTGIGILYVKEALLQEMPPWEGGGSMIATVSLSEGTTWTKAPWRFEAGTPNTGGIIGLGAALEYVSALGLNNIAEYEQNLMHYALSQLESVPDLTLYGPQNRLGVIAFNLGKHHAYDVGSALDNYGIAVRTGHHCAMPLMAYYNVPAMCRASLAMYNTHEEVDRLVTGLQRIHRLLG", "values": [{"measurement": "binding", "setting": "[1]", "result": "no binding (tested: up to 20 μM; KD >>40 μM)"}]}
{"binder": "WT EcSufE, P76194 1-138 (protein) MALLPDKEKLLRNFLRCANWEEKYLYIIELGQRLPELRDEDRSPQNSIQGCQSQVWIVMRQNAQGIIELQGDSDAAIVKGLIAVVFILYDQMTPQDIVNFDVRPWFEKMALTQHLTPSRSQGLEAMIRAIRAKAAALS", "values": [{"measurement": "binding", "setting": "[2]", "result": "no binding (tested: 4 mg/ml)"}]}
{"binder": "R119A EcSufE (WT background) (protein, UniProt P76194 1-138) MALLPDKEKLLRNFLRCANWEEKYLYIIELGQRLPELRDEDRSPQNSIQGCQSQVWIVMRQNAQGIIELQGDSDAAIVKGLIAVVFILYDQMTPQDIVNFDVRPWFEKMALTQHLTPSASQGLEAMIRAIRAKAAALS", "values": [{"measurement": "binding", "setting": "[3]", "result": "no binding (tested: 4 mg/ml)"}]}
{"binder": "R119K EcSufE (WT background) (protein, UniProt P76194 1-138) MALLPDKEKLLRNFLRCANWEEKYLYIIELGQRLPELRDEDRSPQNSIQGCQSQVWIVMRQNAQGIIELQGDSDAAIVKGLIAVVFILYDQMTPQDIVNFDVRPWFEKMALTQHLTPSKSQGLEAMIRAIRAKAAALS", "values": [{"measurement": "binding", "setting": "[4]", "result": "no binding (tested: 4 mg/ml)"}]}
